# Measurements as given in PubChem BioAssay AID1347075 (National Center for Advancing Translational Sciences (NCATS), 2019).
# Hit rate of the full screen: of about 400,000 compounds, about 5,500 (1.4%) were called active. The shares of active, inactive and inconclusive entries below differ from those in the screen. The call rests on the fitted dose curve; in most records, active means well fitted cell-killing curve with a large enough effect; inconclusive means small, poorly fitted or top-dose-only effect, or effect the other way; inactive means flat fitted curve, though single readings scatter. A potency beside an inconclusive call is a rough fit, not a confirmed value.
# Experiment: qHTS assay for MDR1-selective chemotherapeutics: Primary screen using the parental adenocarcinoma cell KB-3-1; further: nearly all actives have a fitted effect of over 60% in size
# Settings: KB-3-1 viability, CellTiter-Glo ATP luminescence, 72 h; activity change, negative = cytotoxic: at 46.1 µM (top of the series)
# Procedure, shortened: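 Using CellTiter-Glo luminescence, growth of non-resistant KB-3-1 adenocarcinoma cells is assessed 72 h after pin-tool compound addition at 37 °C. Normalized responses across the concentration series yield fitted curves.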
# On the % scale 0 is the no-effect control and ±100 the full control effect; potency means the concentration at half of the fitted maximal effect.
SMILES,Potency,"activity change, negative = cytotoxic"
COCCOC(=O)N/C=C\c1nc2ccccc2c(=O)[nH]1,"inconclusive: 4.61 µM [cytotoxic, full curve]",
CN(C)S(=O)(=O)c1cccc(NC(=O)c2cccc(NS(=O)(=O)c3ccccc3)c2)c1,active: 11.6 µM,
O=C(Nc1ccc2c(c1)OCO2)c1ccccn1,"inconclusive: 18.4 µM [cytotoxic, single point]",
CC1c2ccccc2SC(CCCN(C)C)c2ccccc21 (stereo unspecified),"inconclusive: 18.4 µM [cytotoxic, single point]",
COc1ccc(C(=O)NNC2=C(C(=O)C(F)(F)F)CCC2)cc1,"inconclusive: 29.1 µM [cytotoxic, single point]",
Cc1ccc(C(=O)NCc2ccc3c(c2)OCO3)cc1N1CCCC1=O,inactive,
Cc1ccc(S(=O)(=O)N2CCC(C(=O)Nc3ccc(S(=O)(=O)N4CCOCC4)cc3)CC2)cc1,active: 23.1 µM,
Cc1ccc(S(=O)(=O)N(C)c2ccccc2C(=O)Nc2c(F)cccc2F)cc1,inactive,
O=C(NCCc1ccccc1)c1ccc2c(c1)S(=O)(=O)c1cc(Cl)ccc1C2=O,"inconclusive: 25.9 µM [cytotoxic, single point]",
COc1ccc(CNCCC(c2ccccc2)c2ccc(OC(C)C)cc2)cc1OC (stereo unspecified),"inconclusive: 29.1 µM [cytotoxic, single point]",
C=CC[C@@H](CC(=O)N(CCO)Cc1ccccc1)C(=O)N[C@H](COC(=O)[C@@H](CC=C)Cc1ccc(F)cc1)Cc1ccccc1,"inconclusive: 29.1 µM [cytotoxic, single point]",
CC(=O)Nc1cccc(C(=O)NNC(=O)c2ccccc2-n2cccc2)c1,"inconclusive: 9.2 µM [rising, partial curve]",
COc1ccccc1-c1cc(C(F)(F)F)nc(S(=O)(=O)CCCC(=O)Nc2cc(OC)c(OC)c(OC)c2)n1,inactive,
O=C(Cn1cnc2ccccc21)Nc1ccc2c(c1)OCCCO2,"inconclusive: 29.1 µM [cytotoxic, single point]",
CCOC(=O)C(Sc1nnc2c3ccccc3n(CC)c2n1)C(=O)OCC,"inconclusive: 29.1 µM [cytotoxic, single point]",
Cc1ccc(CC(=O)N2CCN(c3cccc(C(F)(F)F)c3)CC2)cc1,"inconclusive: 29.1 µM [cytotoxic, single point]",
CCOC(=O)c1ccc(N2C(=O)c3n[nH]c(-c4cccs4)c3C2c2ccc(C(C)C)cc2)cc1 (stereo unspecified),"inconclusive: 29.1 µM [cytotoxic, single point]",
COc1cc(SC)ccc1C(=O)Nc1ccc(C)cc1,"inconclusive: 20.6 µM [cytotoxic, single point]",
O=C(N/N=C/c1cccnc1)c1cc(-c2ccccc2OCc2ccccc2)n[nH]1,"inconclusive: 16.4 µM [cytotoxic, single point]",
O=S(=O)(c1ccccc1)N1CCC2(CC1)CO2,"inconclusive: 18.4 µM [cytotoxic, single point]",
Cn1c(=O)c2cc(NC(=O)NCc3ccc(Cl)cc3Cl)ccc2n1Cc1ccc(F)cc1,"inconclusive: 29.1 µM [cytotoxic, single point]",

SMILES,Potency,"activity change, negative = cytotoxic"
COc1cccc(CNCC(O)(c2ccc(Cl)cc2)c2ccc(Cl)cc2)c1,"inconclusive: 25.9 µM [cytotoxic, single point]",
Cc1oc(-c2ccccc2)nc1Cn1cccc1C1=NC(c2ccccc2)CO1 (stereo unspecified),active: 16.4 µM,
Cc1ccccc1S(=O)(=O)N1[C@@H](c2cccc(Cl)c2)C(C(=O)OC(C)(C)C)=CC[C@H]1c1ccc(Cl)cc1,"inconclusive: 20.6 µM [cytotoxic, partial curve]",
CCOCCc1nnc(NC(=O)c2ccc(OC)c(OC)c2)s1,"inconclusive: 20.6 µM [cytotoxic, single point]",
COc1ccc(C(=O)c2sc(Nc3cccc(OC)c3)c(C(=O)Nc3cccc(C)c3C)c2N)cc1,"inconclusive: 29.1 µM [cytotoxic, single point]",
CN(Cc1cn(Cc2ccc(Cl)cc2)nn1)C1CN(Cc2cn(Cc3ccc(Cl)cc3)nn2)S(=O)(=O)C1 (stereo unspecified),"inconclusive: 18.4 µM [cytotoxic, single point]",
Cc1oc(-c2cccc3ccccc23)nc1CN1CCN(c2ncnc3ccccc23)CC1,"inconclusive: 16.4 µM [cytotoxic, single point]",
CCCCn1c(NC(=S)Nc2ccccc2)nc2ccccc21,"inconclusive: 32.6 µM [cytotoxic, single point]",
COc1ccc(CC(=O)N/N=C(\C)CC(=O)Nc2cccc(F)c2)cc1,"inconclusive: 0.326 µM [rising, full curve, poor fit]",
COc1ccc(OC)c(NC(=O)Nc2nc(C(N)CCc3ccccc3)cs2)c1 (stereo unspecified),"inconclusive: 29.1 µM [cytotoxic, single point]",
Cc1ccc(C)c(Nc2c([N+](=O)[O-])c(=O)oc3ccccc23)c1,inactive,
COCC(C)N=C1NN=C(c2cccs2)C(CC(=O)O)S1 (stereo unspecified),,inconclusive: -0.179%
Cc1ccc(C(=O)Nc2nc(C)c(C(=O)Nc3ccc4c(c3)CCC4)s2)cc1,active: 20.6 µM,
COc1ccc(CC(=O)NCc2cccs2)cc1,"inconclusive: 29.1 µM [cytotoxic, single point]",
CC(=O)c1ccc(NC(=O)Nc2nnc(N3CCCC(C)C3)s2)cc1 (stereo unspecified),inactive,
Nc1c2c(nc3sc4c(c13)CCCC4)-c1ccccc1CC2,"inconclusive: 29.1 µM [cytotoxic, single point]",
COC(=O)c1ccc(C(=O)NC2CCCc3c2cnn3-c2ccccc2F)nc1 (stereo unspecified),"inconclusive: 16.4 µM [cytotoxic, partial curve, poor fit]",
Cc1ccccc1-n1c(=O)cc(N2CCc3ccccc32)[nH]c1=O,"inconclusive: 32.6 µM [cytotoxic, partial curve, poor fit]",
CNc1ccc(C=O)cc1I,"inconclusive: 23.1 µM [rising, partial curve, poor fit]",
Clc1ccc(CN=C(Nc2ccccc2)NC2CCCCC2)cc1,"inconclusive: 29.1 µM [cytotoxic, single point]",

# An excerpt of these results, with tabs:
SMILES	Potency	activity change, negative = cytotoxic
COc1cccc(CNCC(O)(c2ccc(Cl)cc2)c2ccc(Cl)cc2)c1	inconclusive: 25.9 µM [cytotoxic, single point]	
Cc1oc(-c2ccccc2)nc1Cn1cccc1C1=NC(c2ccccc2)CO1 (stereo unspecified)	active: 16.4 µM	
